{"source": "patent US4127671A", "about": "“P-acetamidophenyl diethylaminoacetate” (Societe Anonyme dite: HEXACHIME, priority 1977, dated 1978)", "origin": "cited, not measured here", "details": "p-acetamidophenol, background statement; cited from earlier work", "data": [{"smiles": "CC(=O)Nc1ccc(O)cc1", "note": "[P-Acetamidophenol]", "values": [{"measurement": "solubility in water", "value": "practically insoluble in water"}]}]}
